# According to US20180362643A1 (Amgen, published 2018):
# Residue numbers refer to the chain shown, from its start. These are yes or no findings as the source states them, for the method shown. Ends that are not written are not given here.
# T1: PACAP38 peptide fragment 26-33 (human)
# T1 construct: also called peptide No. 2
# T1 peptide: VLGKRYKQ
# T2: 19-25
# T2 sequence (peptide): VKKYLAA
# T3: 9-18
# T3 sequence (peptide): SYSRYRKQMA
# T4: 16-23
# T4 sequence (peptide): QMAVKKYL
# T5: amino terminal PACAP38 peptide (amino acids 1-13) (human)
# T5 sequence (peptide): HSDGIFTDSYSRY
# B1: mAb2 (antibody, V domains shown)
# VH: QSLEESGGGLVQPEGSLTLTCTASGFSFNSSSYMCWVRQAPGKGLEWIGCIFTGSSGNTYYATWAQGRFTISKTSTTVTLEMTSLTAADTATYFCARDRAYFLVGYFYATYYFDLWGPGTLVTVSS
# VL: DVVMTQTPSPVSAQVGGTVTINCQASESIDSDLSWYQQKPGQPPKLLIYRTFTLESGVPSRFKGSGSGTDYTLTISDLECADAAIYYCQCTDGSSISGSYGWDAFGGGTEVVVKG
# notes: Rabbit monoclonal antibody (SLAM), recombinant; also called monoclonal anti-PACAP antibody 2; 2 (c81)
# B2: mAb4 (antibody, V domains shown)
# VH: QSVEESGGRLVTPGTPLTLTCTASGIDLSSYAMIWVRQAPGEGLEYIGFIDAGDGNTYYASWAKGRFTISKTSTTVDLKITSPTTEDTATYFCARGDPGWSNGFALWGQGTLVTVSS
# VL: DIVMTQTPASVSGAVGGTVTIKCQASQSIRNELSWYQQKPGQPPKLLIYKASTLASGVPSRFSGSGFGTEFTLTISGVQCDDAATYYCQNNYGTRRNNYVFPFGGGTEVVVKG
# notes: Rabbit monoclonal antibody (SLAM), recombinant; also called monoclonal anti-PACAP antibody 4; 4 (c47)
# B3: mAb6 (antibody, V domains shown)
# VH: QLEESGGGLVQPGASLTLTCTTSGFSLSDNYLCWVRQAPGRGLEWVACIGIVLRSTGATYYASWAEGRFTISKTSPTTVTLEMTSLTAADTATYFCALDLGYGGPLWGPGTLVTVSS
# VL: AQVLTQTPASVSAAVGGTVTINCQASQSVYNNKNLAWYQQKPGQPPKLLIYFSSTLASGVPSRFRGSGSGTQFTLTISGVQCGDAATYYCLGEFGSIWAFGGGTEVVVKG
# notes: Rabbit monoclonal antibody (SLAM), recombinant; also called monoclonal anti-PACAP antibody 6; 6 (c55)
# B4: mAb3 (antibody, V domains shown)
# VH: QSLEESGGGLVQPGASLTLTCTASGFSFSSNYYMCWVRQAPGKGLEWIACIFTGSSGSTYYASWAKGRFTISKTSSTTVTLHVTSLTAADTATYFCARDRALSVVGYFYAAYYFDFWGPGTLVTVSS
# VL: DVVMTQTPSPVSAAVGGTVTINCRASEDIESFLAWYQQKPGQPPKLLMSRTSTLESGVPSRFKGSGSGTEFTLTISDLECADAATYYCQCTDGSSSSSSYGWDAFGGGTEVVVKG
# notes: Rabbit monoclonal antibody (SLAM), recombinant; also called monoclonal anti-PACAP antibody 3; 3 (c89)
# B5: mAb5 (antibody, V domains shown)
# VH: QSVEESGGRLVTPGTPLTLTCTVSGFSLSTYNMCWVRQAPGKGLEWVGFINSDDSAYYASWAKGRFTFSKTSTTVDLKIASPTTEDTATYFCARYDWDYYYSRLDLWGPGTLVTVSS
# VL: DIVLTQTPASVSAAVGGTVSISCQSSESVYNNNYLSWFQQKPGQPPKLLIYGASTLASGVPSRFEGSGSGTQFTLTISDVQCDDAATYYCLGDYIIIENIFGGGTEVVVKG
# notes: Rabbit monoclonal antibody (SLAM), recombinant; also called monoclonal anti-PACAP antibody 5; 5 (c71)
# B6: mAb1 (antibody, V domains shown)
# VH: QSLEESGGDLVKPGASLTLTCKASGIAFSNDYMCWVRQAPGKGLEWIACIFTGSSGSTYYASWAKGRFTISKTSSTTVTLQMTSLTAADTATYFCARDRAISVLGYFYAAYFFDFWGPGTLVTVSS
# VL: B4 VL with M48I, P59S, T72I
# notes: Rabbit monoclonal antibody (SLAM), cloned, recombinantly expressed and purified; also called monoclonal anti-PACAP antibody 1; 1 (c20)
# Target: T1, PACAP38 peptide fragment 26-33
# Assay: SPR (Biacore 3000), solution competition with the peptide for antibody binding to immobilised full-length PACAP38; % inhibition
row,Binder,binding
1,B1,no binding (tested: 1:200 molar ratio (Ab:peptide))
2,B2,no binding (tested: 1:200 molar ratio (Ab:peptide))
3,B3,no binding (tested: 1:200 molar ratio (Ab:peptide))
4,B4,no binding (tested: 1:200 molar ratio (Ab:peptide))

# Target: T2, 19-25
# Assay: as above
row,Binder,binding
1,B1,no binding (tested: 1:200 molar ratio (Ab:peptide))
2,B2,no binding (tested: 1:200 molar ratio (Ab:peptide))
3,B3,no binding (tested: 1:200 molar ratio (Ab:peptide))
4,B5,no binding (tested: 1:200 molar ratio (Ab:peptide))
5,B4,no binding (tested: 1:200 molar ratio (Ab:peptide))

# Target: T3, 9-18
# Assay: as above
row,Binder,binding
1,B1,no binding (tested: 1:200 molar ratio (Ab:peptide))
2,B2,no binding (tested: 1:200 molar ratio (Ab:peptide))
3,B3,no binding (tested: 1:200 molar ratio (Ab:peptide))
4,B5,no binding (tested: 1:200 molar ratio (Ab:peptide))
5,B4,no binding (tested: 1:200 molar ratio (Ab:peptide))
6,B6,no binding (tested: 1:200 molar ratio (Ab:peptide))

# Target: T4, 16-23
# Assay: as above
row,Binder,binding
1,B1,no binding (tested: 1:200 molar ratio (Ab:peptide))
2,B2,no binding (tested: 1:200 molar ratio (Ab:peptide))
3,B3,no binding (tested: 1:200 molar ratio (Ab:peptide))
4,B5,no binding (tested: 1:200 molar ratio (Ab:peptide))
5,B4,no binding (tested: 1:200 molar ratio (Ab:peptide))
6,B6,no binding (tested: 1:200 molar ratio (Ab:peptide))

# Target: T1, PACAP38 peptide fragment 26-33
# Assay: SPR (Biacore 3000) solution competition against immobilised PACAP38
row,Binder,binding
1,B1,no binding (tested: 1:200 molar ratio (Ab: peptide fragment))
2,B3,no binding (tested: 1:200 molar ratio (Ab: peptide fragment))

# Target: T5, amino terminal PACAP38 peptide (amino acids 1-13) (human)
# Assay: SPR (Biacore 3000) solution competition against immobilised PACAP38; purified recombinant mAb5; peptide-fragment inhibition of binding to full-length PACAP38 (epitope mapping), not the ELISA screen
row,Binder,binding
1,B5,no binding (tested: 1:200 molar ratio (Ab: peptide fragment))
